The substances below were run on colorectal cancer (assay: Presence of the phosphopeptide in previously analyzed colorectal cancer samples).
Parameters: key: The presence of phosphopeptides in previously analyzed samples including leukemia, colorectal cancer, melanoma, ovarian cancer, breast cancer, and esophageal cancer is indicated by ✓

Colorectal, ✓:
229 (GRLSPAYSL; (4)...(4) The amino acid at this position is optionally phosphorylated; listed as Homo sapiens) [compound 229]
117 (LPRSSSMAAGL; (6)...(6) The amino acid at this position is optionally phosphorylated; listed as Homo sapiens) [compound 117]
78 (APDSPRAFL; (4)...(4) The amino acid at this position is optionally phosphorylated; listed as Homo sapiens) [compound 78]
7 (DLKRRSMSI; (6)...(6) The amino acid at this position is optionally phosphorylated; listed as Homo sapiens) [compound 7]
176 (RPRSPNMQDL; (4)...(4) The amino acid at this position is optionally phosphorylated; listed as Homo sapiens) [compound 176]
308 (KLPSPAPARK; (4)...(4) The amino acid at this position is optionally phosphorylated; listed as Homo sapiens) [compound 308]
59 (SISSMEVNV; (4)...(4) The amino acid at this position is optionally phosphorylated; listed as Homo sapiens) [compound 59]
343 (FKTQPVTF; (3)...(3) The amino acid at this position is optionally phosphorylated; listed as Homo sapiens) [compound 343]
87 (FRGRYRSPY; (7)...(7) The amino acid at this position is optionally phosphorylated; listed as Homo sapiens) [compound 87]
219 (VPRPERRSSL; (8)...(8) The amino acid at this position is optionally phosphorylated; listed as Homo sapiens) [compound 219]
267 (RRMSFQKP; (4)...(4) The amino acid at this position is optionally phosphorylated; listed as Homo sapiens) [compound 267]
141 (RPISPRIGAL; (4)...(4) The amino acid at this position is optionally phosphorylated; listed as Homo sapiens) [compound 141]
250 (RRFSIATLR; (4)...(4) The amino acid at this position is optionally phosphorylated; listed as Homo sapiens) [compound 250]
130 (RPASPSLQL; (4)...(4) The amino acid at this position is optionally phosphorylated; listed as Homo sapiens) [compound 130]
228 (GRKSPPPSF; (4)...(4) The amino acid at this position is optionally phosphorylated; listed as Homo sapiens) [compound 228]
389 (RYQTQPVTL; (4)...(4) The amino acid at this position is optionally phosphorylated; listed as Homo sapiens) [compound 389]
133 (RPDSPTRPTL; (4)...(4) The amino acid at this position is optionally phosphorylated; listed as Homo sapiens) [compound 133]
365 (RFKTQPVTF; (4)...(4) The amino acid at this position is optionally phosphorylated; listed as Homo sapiens) [compound 365]
96 (HRYSTPHAF; (4)...(4) The amino acid at this position is opti onally phosphorylated; listed as Homo sapiens) [compound 96]
391 (RTSSFTFQN; (4)...(4) The amino acid at this position is optionally phosphorylated; listed as Homo sapiens) [compound 391]
247 (RRDSIVAEL; (4)...(4) The amino acid at this position is optionally phosphorylated; listed as Homo sapiens) [compound 247]
71 (SVKPRRTSL; (8)...(8) The amino acid at this position is optionally phosphorylated; listed as Homo sapiens) [compound 71]
136 (RPFHGISTVSL; (10)...(10) The amino acid at this position is optionally phosphorylated; listed as Homo sapiens) [compound 136]
163 (RPRPSSAHVGL; (6)...(6) The amino acid at this position is optionally phosphorylated; listed as Homo sapiens) [compound 163]
278 (RRSSIQSTF; (4)...(4) The amino acid at this position is optionally phosphorylated; listed as Homo sapiens) [compound 278]
144 (RPKSPLSKM; (4)...(4) The amino acid at this position is optionally phosphorylated; listed as Homo sapiens) [compound 144]
246 (RRASLSEIGF; (4)...(4) The amino acid at this position is optionally phosphorylated; listed as Homo sapiens) [compound 246]
102 (KPRSPFSKI; (4)...(4) The amino acid at this position is optionally phosphorylated; listed as Homo sapiens) [compound 102]
260 (RRISDPQVF; (4)...(4) The amino acid at this position is optionally phosphorylated; listed as Homo sapiens) [compound 260]
9 (FLDTPIAKV; (4)...(4) The amino acid at this position is optionally phosphorylated; listed as Homo sapiens) [compound 9]
168 (RPRSAVEQL; (4)...(4) The amino acid at this position is optionally phosphorylated; listed as Homo sapiens) [compound 168]
264 (RRLSELLRY; (4)...(4) The amino acid at this position is optionally phosphorylated; listed as Homo sapiens) [compound 264]
230 (GRLSPVPVPR; (4)...(4) The amino acid at this position is optionally phosphorylated; listed as Homo sapiens) [compound 230]
99 (KPRPLSMDL; (6)...(6) The amino acid at this position is optionally phosphorylated; listed as Homo sapiens) [compound 99]
131 (RPASPSLQLL; (4)...(4) The amino acid at this position is optionally phosphorylated; listed as Homo sapiens) [compound 131]
138 (RPGSRQAGL; (4)...(4) The amino acid at this position is optionally phosphorylated; listed as Homo sapiens) [compound 138]
288 (ISSSMHSLY; (4)...(4) The amino acid at this position is optionally phosphorylated; listed as Homo sapiens) [compound 288]
177 (RPRSPPGGP; (4)...(4) The amino acid at this position is optionally phosphorylated; listed as Homo sapiens) [compound 177]
248 (RRDSLQKPGL; (4)...(4) The amino acid at this position is optionally phosphorylated; listed as Homo sapiens) [compound 248]
153 (RPRAATVV; (6)...(6) The amino acid at this position is optionally phosphorylated; listed as Homo sapiens) [compound 153]
223 (YPGGRRSSL; (7)...(7) The amino acid at this position is optionally phosphorylated; listed as Homo sapiens) [compound 223]
34 (RLASYLDRV; (4)...(4) The amino acid at this position is optionally phosphorylated; listed as Homo sapiens) [compound 34]
135 (RPDVAKRLSL; (9)...(9) The amino acid at this position is optionally phosphorylated; listed as Homo sapiens) [compound 135]
329 (RTRSLSSLREK; (4)...(4) The amino acid at this position is optionally phosphorylated; listed as Homo sapiens) [compound 329]
258 (RRIDISPSTF; (6)...(6) The amino acid at this position is optionally phosphorylated; listed as Homo sapiens) [compound 258]
234 (KRFSFKKSF; (4)...(4) The amino acid at this position is optionally phosphorylated; listed as Homo sapiens) [compound 234]
251 (RRFSLTTLR; (4)...(4) The amino acid at this position is optionally phosphorylated; listed as Homo sapiens) [compound 251]
